Measurements published in paper PMC10461100, “Transcuticular calcium imaging as a tool for the functional study of insect odorant receptors” (Frontiers in Molecular Neuroscience, 2023).

Tested on: T1, SlitOR29
T1 construct: full-length UAS transgene in Drosophila melanogaster ab3A basiconic neurons in place of DmelOR22a/b; endogenous Drosophila Orco; GCaMP6s reporter co-expressed; with Odorant receptor coreceptor (endogenous, Drosophila melanogaster)
Test: transcuticular calcium imaging (GCaMP6s), single dose
Set-up: species or system Spodoptera littoralis
Details: volatile stimulus, 100 μg on filter paper (in mineral oil), in vivo fly antenna, 1 s puff

SMILES | response amplitude (ΔF/F0) at 100 μg on filter paper [%] | response amplitude (ΔF/F0) at 100 μg on filter paper (receptor-free control line also gives a small significant signal) [%]
CC(C)=CCC/C(C)=C/CO [geraniol] | 28.70 ± 4.55 | 
CC(=O)CCC=C(C)C [sulcatone] |  | 21.55 ± 3.28
C=CC(=C)CCC=C(C)C [β-myrcene] | 38.46 ± 6.16 | 
